Data: the supplement of paper PMC4604168 (melanoma cell lines)
Some of the results follow. Single values are uncertain, as repeats are few or missing.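 The apoptosis fraction was the count of cleaved-PARP antibody-stained nuclei relative to all DNA-stained nuclei, imaged in 1,536-well plates. Screening doses were set so most cells survived, and baseline and induced cleaved-PARP levels vary greatly across cell lines.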

system: LB2518-MEL; experiment: cleaved PARP positive nuclei fraction relative to DMSO control; melanoma cells; higher = more apoptosis; settings: library dose: low library concentration; 72 h

| SMILES | cleaved PARP positive nuclei fraction [%] |
| --- | --- |
| CS(=O)(=O)c1ccc(C(=O)Nc2ccc(Cl)c(-c3ccccn3)c2)c(Cl)c1 [vismodegib] + CO[C@@H]1[C@H](N(C)C(=O)c2ccccc2)C[C@H]2O[C@]1(C)n1c3ccccc3c3c4c(c5c6ccccc6n2c5c31)C(=O)NC4 [Midostaurin] (first compound 1 µM, partner dose 0.08 µM) | 19.7 |
| CC(=O)O[C@@]12CO[C@@H]1C[C@H](O)[C@@]1(C)C(=O)[C@H](O)C3=C(C)[C@@H](OC(=O)[C@H](O)[C@@H](NC(=O)OC(C)(C)C)c4ccccc4)C[C@@](O)([C@@H](OC(=O)c4ccccc4)[C@H]21)C3(C)C [Docetaxel] + C[C@@H]1CCN(C(=O)CC#N)C[C@@H]1N(C)c1ncnc2[nH]ccc12 [CP690550] (first compound 0.0001 µM, partner dose 1 µM) | 191 |
| Cn1cnc2c(F)c(Nc3ccc(Br)cc3Cl)c(C(=O)NOCCO)cc21 [selumetinib] + O=C(Nc1cccc(Cl)c1)Nc1ncc(CCNc2ncnc3ccsc23)s1 [SNS314] (first compound 0.015 µM, partner dose 0.0008 µM) | 36.1 |
| NC(=O)c1ccc(N(C(N)=O)c2c(F)cccc2F)nc1-c1ccc(F)cc1F + OCCn1cc(-c2cnc3nnn(Cc4ccc5ncccc5c4)c3n2)cn1 [PF04217903] (first compound 0.4 µM, partner dose 1 µM) | 100 |
| CC1(C)CCC(c2ccc(Cl)cc2)=C(CN2CCN(c3ccc(C(=O)NS(=O)(=O)c4ccc(N[C@H](CCN5CCOCC5)CSc5ccccc5)c(S(=O)(=O)C(F)(F)F)c4)cc3)CC2)C1 + CO[C@@H]1[C@H](N(C)C(=O)c2ccccc2)C[C@H]2O[C@]1(C)n1c3ccccc3c3c4c(c5c6ccccc6n2c5c31)C(=O)NC4 [Midostaurin] (first compound 0.4 µM, partner dose 0.08 µM) | 147 |

system: LOXIMVI; experiment: as above; settings: library dose: low library concentration; 72 h

| SMILES | cleaved PARP positive nuclei fraction [%] |
| --- | --- |
| COc1ccc(C2=N[C@@H](c3ccc(Cl)cc3)[C@@H](c3ccc(Cl)cc3)N2C(=O)N2CCNC(=O)C2)c(OC(C)C)c1 [Nutlin-3] + C=CCn1c(=O)c2cnc(Nc3ccc(N4CCN(C)CC4)cc3)nc2n1-c1cccc(C(C)(C)O)n1 [MK1775] (first compound 0.1 µM, partner dose 0.02 µM) | 53.9 |
| Cn1sc(=O)n(Cc2ccccc2)c1=O + CO[C@@H]1[C@H](N(C)C(=O)c2ccccc2)C[C@H]2O[C@]1(C)n1c3ccccc3c3c4c(c5c6ccccc6n2c5c31)C(=O)NC4 [Midostaurin] (first compound 0.4 µM, partner dose 0.08 µM) | 81.8 |
| Cn1cnc2c(F)c(Nc3ccc(Br)cc3Cl)c(C(=O)NOCCO)cc21 [selumetinib] + Cc1cc(N2CCOCC2)cc2[nH]c(-c3c(NC[C@@H](O)c4cccc(Cl)c4)cc[nH]c3=O)nc12 [BMS536924] (first compound 0.015 µM, partner dose 0.2 µM) | 53 |
| CC(=O)O[C@@]12CO[C@@H]1C[C@H](O)[C@@]1(C)C(=O)[C@H](O)C3=C(C)[C@@H](OC(=O)[C@H](O)[C@@H](NC(=O)OC(C)(C)C)c4ccccc4)C[C@@](O)([C@@H](OC(=O)c4ccccc4)[C@H]21)C3(C)C [Docetaxel] + O=C(CCCCCCC(=O)Nc1ccccc1)NO [vorinostat] (first compound 0.0001 µM, partner dose 0.08 µM) | 128 |
| C[C@]1(O)C[C@@H](c2nc(-c3ccc4ccc(-c5ccccc5)nc4c3)c3c(N)nccn32)C1 + CO[C@@H]1[C@H](N(C)C(=O)c2ccccc2)C[C@H]2O[C@]1(C)n1c3ccccc3c3c4c(c5c6ccccc6n2c5c31)C(=O)NC4 [Midostaurin] (first compound 0.4 µM, partner dose 0.08 µM) | 53.8 |
| CS(=O)(=O)c1ccc(C(=O)Nc2ccc(Cl)c(-c3ccccn3)c2)c(Cl)c1 [vismodegib] + NC(=O)Nc1cc(-c2cccc(F)c2)sc1C(=O)N[C@H]1CCCNC1 [AZD7762] (first compound 1 µM, partner dose 0.02 µM) | 88.1 |
| CC(=O)O[C@@]12CO[C@@H]1C[C@H](O)[C@@]1(C)C(=O)[C@H](O)C3=C(C)[C@@H](OC(=O)[C@H](O)[C@@H](NC(=O)OC(C)(C)C)c4ccccc4)C[C@@](O)([C@@H](OC(=O)c4ccccc4)[C@H]21)C3(C)C [Docetaxel] + CO[C@@H]1[C@H](N(C)C(=O)c2ccccc2)C[C@H]2O[C@]1(C)n1c3ccccc3c3c4c(c5c6ccccc6n2c5c31)C(=O)NC4 [Midostaurin] (first compound 0.0001 µM, partner dose 0.08 µM) | 310 |
| CC(=O)O[C@@]12CO[C@@H]1C[C@H](O)[C@@]1(C)C(=O)[C@H](O)C3=C(C)[C@@H](OC(=O)[C@H](O)[C@@H](NC(=O)OC(C)(C)C)c4ccccc4)C[C@@](O)([C@@H](OC(=O)c4ccccc4)[C@H]21)C3(C)C [Docetaxel] + Cc1ccc(NC(=O)c2cccc(N(C)C)c2)cc1NC(=O)c1ccc(O)cc1 [ZM336372] (first compound 0.0001 µM, partner dose 2 µM) | 95.1 |
| Cn1sc(=O)n(Cc2ccccc2)c1=O + NC(=O)Nc1cc(-c2cccc(F)c2)sc1C(=O)N[C@H]1CCCNC1 [AZD7762] (first compound 0.4 µM, partner dose 0.02 µM) | 94.3 |
| C[C@@H](N)c1ccc(C(=O)Nc2ccnc3[nH]ccc23)cc1 + O=C(O)c1ccc(-c2c[nH]c3ncc(-c4ccccc4)cc23)cc1C1CCCC1 [GSK650394] (first compound 0.4 µM, partner dose 0.16 µM) | 55.5 |
| NC1(c2ccc(-c3nc4ccn5c(=O)[nH]nc5c4cc3-c3ccccc3)cc2)CCC1 + NC(=O)Nc1cc(-c2cccc(F)c2)sc1C(=O)N[C@H]1CCCNC1 [AZD7762] (first compound 0.4 µM, partner dose 0.02 µM) | 45.7 |
| COc1ccc(C2=N[C@@H](c3ccc(Cl)cc3)[C@@H](c3ccc(Cl)cc3)N2C(=O)N2CCNC(=O)C2)c(OC(C)C)c1 [Nutlin-3] + COc1cc2c(Oc3ccc4[nH]c(C)cc4c3F)ncnc2cc1OCCCN1CCCC1 [cediranib] (first compound 0.1 µM, partner dose 0.4 µM) | 95.5 |
| Cn1cnc2c(F)c(Nc3ccc(Br)cc3Cl)c(C(=O)NOCCO)cc21 [selumetinib] + CC1(C)NC(=O)N(c2ccc([N+](=O)[O-])c(C(F)(F)F)c2)C1=O [nilutamide] (first compound 0.015 µM, partner dose 1 µM) | 553 |
| NC(=O)c1ccc(N(C(N)=O)c2c(F)cccc2F)nc1-c1ccc(F)cc1F + Cc1ccc(NC(=O)c2cccc(N(C)C)c2)cc1NC(=O)c1ccc(O)cc1 [ZM336372] (first compound 0.4 µM, partner dose 2 µM) | 85 |
| CC1(C)CCC(c2ccc(Cl)cc2)=C(CN2CCN(c3ccc(C(=O)NS(=O)(=O)c4ccc(N[C@H](CCN5CCOCC5)CSc5ccccc5)c(S(=O)(=O)C(F)(F)F)c4)cc3)CC2)C1 + CN(NC(=O)CC(=O)NN(C)C(=S)c1ccccc1)C(=S)c1ccccc1 [STA4783] (first compound 0.4 µM, partner dose 0.006 µM) | 101 |
| Cn1cnc2c(F)c(Nc3ccc(Br)cc3Cl)c(C(=O)NOCCO)cc21 [selumetinib] + NCC(=O)Nc1ccc(-n2nc(C(F)(F)F)cc2-c2ccc3c(ccc4ccccc43)c2)cc1 [OSU03012] (first compound 0.015 µM, partner dose 1 µM) | 99.6 |
| CC1(C)CCC(c2ccc(Cl)cc2)=C(CN2CCN(c3ccc(C(=O)NS(=O)(=O)c4ccc(N[C@H](CCN5CCOCC5)CSc5ccccc5)c(S(=O)(=O)C(F)(F)F)c4)cc3)CC2)C1 + CC1(C)NC(=O)N(c2ccc([N+](=O)[O-])c(C(F)(F)F)c2)C1=O [nilutamide] (first compound 0.4 µM, partner dose 1 µM) | 125 |
| CC1(C)CCC(c2ccc(Cl)cc2)=C(CN2CCN(c3ccc(C(=O)NS(=O)(=O)c4ccc(N[C@H](CCN5CCOCC5)CSc5ccccc5)c(S(=O)(=O)C(F)(F)F)c4)cc3)CC2)C1 + COc1cc(Nc2ncc(F)c(Nc3ccc4c(n3)NC(=O)C(C)(C)O4)n2)cc(OC)c1OC [Tamatinib] (first compound 0.4 µM, partner dose 0.4 µM) | 237 |
| CCCCCCCCc1ccc(CCC(N)(CO)CO)cc1 [fingolimod] + OCCn1cc(-c2cnc3nnn(Cc4ccc5ncccc5c4)c3n2)cn1 [PF04217903] (first compound 2 µM, partner dose 1 µM) | 37 |
| C[C@]1(O)C[C@@H](c2nc(-c3ccc4ccc(-c5ccccc5)nc4c3)c3c(N)nccn32)C1 + COc1cc(Nc2ncc(F)c(Nc3ccc4c(n3)NC(=O)C(C)(C)O4)n2)cc(OC)c1OC [Tamatinib] (first compound 0.4 µM, partner dose 0.4 µM) | 66.7 |
| CCN(CC)CCNC(=O)c1c(C)[nH]c(/C=C2\C(=O)Nc3ccc(F)cc32)c1C [sunitinib] + O=C(Nc1cccc(Cl)c1)Nc1ncc(CCNc2ncnc3ccsc23)s1 [SNS314] (first compound 0.4 µM, partner dose 0.0008 µM) | 29 |

An excerpt of the results above:

| SMILES | cleaved PARP positive nuclei fraction [%] |
| --- | --- |
| C[C@@H](N)c1ccc(C(=O)Nc2ccnc3[nH]ccc23)cc1 + O=C(O)c1ccc(-c2c[nH]c3ncc(-c4ccccc4)cc23)cc1C1CCCC1 [GSK650394] (first compound 0.4 µM, partner dose 0.16 µM) | 55.5 |
| NC1(c2ccc(-c3nc4ccn5c(=O)[nH]nc5c4cc3-c3ccccc3)cc2)CCC1 + NC(=O)Nc1cc(-c2cccc(F)c2)sc1C(=O)N[C@H]1CCCNC1 [AZD7762] (first compound 0.4 µM, partner dose 0.02 µM) | 45.7 |
